Consider four compounds from the supplement of paper PMC4862054.

Most entries show no effect beyond the scatter of the controls.

What all share (test): normalised response (% of control), CellTox Green; higher = less cell death (100 = DMSO, 0 = benzethonium chloride kill control)
Holding throughout (conditions): incubation time: 72 h

The test system of experiment [1] is BT-474. The method, then: (§1)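 DSRT, 72 h incubation, CellTox Green / CellTiter-Glo readout. Signal is normalised to DMSO and benzethonium chloride controls. Value is the normalised response at the lowest tested concentration.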
Experiment [2] concerns BT-549. Here is the method: as §1
The test system of experiment [3] is CAL-120. The method, then:
as §1

The subject of experiment [4] is CAL-148. The method, then: as §1
The subject of experiment [5] is CAL-51. Here is the method: as §1
Experiment [6] concerns CAL-85-1. The method, then: as §1
Experiment [7] relates to DU-4475. The method, then: as §1
The next experiment relates to HCC1143. The method, then:
as §1

The subject of experiment [8] is HCC1599. Here is the method:
as §1

The next experiment has as its system HCC1937. The method, then:
as §1

Experiment [9] concerns Hs578T. Here is the method: as §1
The test system of the next experiment is MCF-10A. Here is the method: as §1
Experiment [10] relates to MDA-MB-231. Here is the method: as §1
Experiment [11] deals with MDA-MB-436. Here is the method: as §1
Experiment [12] concerns MDA-MB-453. Here is the method:
as §1

Experiment [13] concerns MDA-MB-468. The method, then:
as §1

Experiment [14] concerns MFM-223. Here is the method: as §1
The test system of experiment [15] is BT-474. Here is the method:
(§2)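 DSRT, 72 h incubation, CellTox Green / CellTiter-Glo readout. Signal is normalised to DMSO and benzethonium chloride controls. Value is the normalised response at dose 2.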
The source holds these as a separate data set.

The test system of experiment [16] is BT-549. The method, then: as §2
This is another data set of the same source.

The subject of experiment [17] is CAL-120. The method, then:
as §2
The source holds these as a separate data set.

Experiment [18] relates to CAL-148. Here is the method:
as §2
This is another data set of the same source.

For experiment [19], the system named is CAL-51. The method, then:
as §2
The source holds these as a separate data set.

Experiment [20] relates to CAL-85-1. Here is the method: as §2
The source holds these as a separate data set.

For experiment [21], the system named is DU-4475. Here is the method: as §2
The source holds these as a separate data set.

The subject of experiment [22] is HCC1599. Here is the method: as §2
This is another data set of the same source.

The next experiment relates to HDQ-P1. Here is the method:
as §2

Experiment [23] relates to Hs578T. The method, then:
as §2
This is another data set of the same source.

Experiment [24] concerns MDA-MB-231. Here is the method:
as §2
This is another data set of the same source.

Experiment [25] concerns MDA-MB-436. Here is the method: as §2
The source holds these as a separate data set.

Experiment [26] has as its system MDA-MB-453. The method, then: as §2
The source holds these as a separate data set.

Experiment [27] concerns MDA-MB-468. Here is the method:
as §2
The source holds these as a separate data set.

Experiment [28] deals with MFM-223. The method, then: as §2
This is another data set of the same source.

`CCn1c(C(=O)N(C2CC2)C2CC2)cc2c3c(ncn3C)c(Nc3cc(C)n(C)n3)nc21` (1 nM): the normalised response in the experiment with BT-474 [1] was 96.7%; in the experiment with BT-549 [2] it was 99.5%; in the experiment on CAL-120 [3], 105%; in the experiment with CAL-148 [4] it was 103%; in the experiment on CAL-51 [5], 97.7%; in the experiment on CAL-85-1 [6] it was 101%. Further, the normalised response in the experiment on DU-4475 [7] is 106%; in the experiment with HCC1143 it was 119%; with HCC1599 [8], 112%; with HCC1937 it was 88.2%; in the experiment on Hs578T [9], 108%; in the experiment with MCF-10A, 108%. Besides, the normalised response in the experiment with MDA-MB-231 [10] came to 117%; in the experiment on MDA-MB-436 [11] it was 102%; with MDA-MB-453 [12], 80.3%; in the experiment with MDA-MB-468 [13] it was 95.9%; in the experiment with MFM-223 [14], 103%.

On to `CC(C)(C#N)c1cc(Cn2cncn2)cc(C(C)(C)C#N)c1` [Anastrozole] (10 nM), for which the normalised response in the experiment with BT-474 [15] worked out at 103%; in the experiment on BT-549 [16], 110%; with CAL-120 [17], 101%; with CAL-148 [18], 105%; with CAL-51 [19], 93.1%; in the experiment on CAL-85-1 [20], 106%. The normalised response was 99.2% in the experiment with DU-4475 [21]; 94.7% in the experiment on HCC1599 [22]; 112% with HDQ-P1; 100% in the experiment on Hs578T [23]; 98.2% with MDA-MB-231 [24]; 56.1% with MDA-MB-436 [25]. Moreover, the normalised response in the experiment on MDA-MB-453 [26] stood at 96%; in the experiment with MDA-MB-468 [27], 137%; with MFM-223 [28], 68.9%.

For `Cn1c(=O)n(-c2ccc(C(C)(C)C#N)cc2)c2c3cc(-c4cnc5ccccc5c4)ccc3ncc21` [Dactolisib] (0.1 nM), the normalised response was determined as 98.5% in the experiment with BT-474 [1]; 102% in the experiment with BT-549 [2]; 99.5% in the experiment with CAL-120 [3]; 107% in the experiment on CAL-148 [4]; 117% in the experiment with CAL-51 [5]; 99.3% in the experiment on CAL-85-1 [6]. The normalised response in the experiment on DU-4475 [7] came out at 103%; in the experiment with HCC1143, 117%; in the experiment with HCC1599 [8], 90.9%; in the experiment on HCC1937, 74.6%; in the experiment with Hs578T [9], 112%; in the experiment on MCF-10A it was 99.9%. Further, the normalised response amounted to 106% in the experiment with MDA-MB-231 [10]; 103% in the experiment with MDA-MB-436 [11]; 113% in the experiment on MDA-MB-453 [12]; 118% in the experiment on MDA-MB-468 [13]; 64.6% in the experiment on MFM-223 [14].

Take `CC(=O)O[C@@]12CO[C@@H]1C[C@H](O)[C@@]1(C)C(=O)[C@H](O)C3=C(C)[C@@H](OC(=O)[C@H](O)[C@@H](NC(=O)OC(C)(C)C)c4ccccc4)C[C@@](O)([C@@H](OC(=O)c4ccccc4)[C@H]21)C3(C)C` [Docetaxel] (0.1 nM): the normalised response came out at 99.4% in the experiment with BT-474 [1]; 100% in the experiment on BT-549 [2]; 97.6% in the experiment on CAL-120 [3]; 98.6% in the experiment with CAL-148 [4]; 97.1% in the experiment with CAL-51 [5]; 95.4% in the experiment on CAL-85-1 [6]. For the same compound, the normalised response with DU-4475 [7] amounted to 97.2%; in the experiment on HCC1143, 119%; in the experiment on HCC1599 [8], 94.1%; with HCC1937, 104%; with Hs578T [9], 89.8%; with MCF-10A, 95.3%. For the same compound, the normalised response with MDA-MB-231 [10] was 104%; in the experiment with MDA-MB-453 [12], 105%; in the experiment with MDA-MB-468 [13], 90.7%; in the experiment on MFM-223 [14] it was 84.3%.
